{
  "source": "patent US20150320782A1",
  "about": "“Methods, compositions and kits for treating, modulating, or preventing ocular angiogenesis or fibrosis in a subject using a galectin protein inhibitor” (TUFTS UNIVERSITY, priority 2012, published 2015)",
  "origin": "cited, not measured here",
  "molecular_target": "galectins",
  "settings": "read-out: Dissociation constant (KD) for galectins; cited from earlier work",
  "note": "Some results were stated once for a whole list of compounds, not compound by compound.",
  "data": [
    {"smiles": "OC[C@H]1O[C@@H](O[C@H]2[C@H](O)[C@@H](O)C(O)O[C@@H]2CO)[C@H](O)[C@@H](O)[C@H]1O", "note": "(stereo partly shown) [lactose]", "values": [
      {"measurement": "Kd", "value": "500 to 1000", "unit": "µM"}
    ]}
  ]
}
